These results are taken from patent publication JP2023100255A.

The chains behind the UniProt entries cited, without tags or fusion partners. Where a name states a change or a piece, a line headed by the entry shows the natural chain unless it says otherwise.
UniProt P07766: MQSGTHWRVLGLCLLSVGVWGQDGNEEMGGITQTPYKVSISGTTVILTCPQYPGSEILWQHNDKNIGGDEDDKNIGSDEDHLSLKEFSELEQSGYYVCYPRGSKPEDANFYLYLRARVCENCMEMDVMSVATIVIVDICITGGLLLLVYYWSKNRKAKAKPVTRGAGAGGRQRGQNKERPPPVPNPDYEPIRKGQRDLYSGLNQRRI

For the experiment, the target named is ヒトCD3(初代ヒトT細胞上に発現) (human) (UniProt P07766). As to the kind of experiment: flow cytometry on primary human T cells, 37 °C.

No constants are given. Whether binding was seen depends on the method and setting. Some results given as binding are weak or reduced against the parent protein; the word gives no strength.

B1: B7-H4xCD3二重特異性抗体1167 (bispecific antibody)
heavy 1: EVQLLESGGGLVQPGGSLRLSCAASGFTFSSYAMSWVRQAPGKGLEWVSAISGGGGSTYYADSVKGRFTISRDNSKNTLYLQMNSLRAEDTAVYYCARDIQWYGESTLFDYWGQGTLVTVSSASTKGPSVFPLAPCSRSTSESTAALGCLVKDYFPEPVTVSWNSGALTSGVHTFPAVLQSSGLYSLSSVVTVPSSNFGTQTYTCNVDHKPSNTKVDKTVERKCEVECPECPAPPVAGPSVFLFPPKPKDTLMISRTPEVTCVVVAVSHEDPEVQFNWYVDGVEVHNAKTKPREEQFNSTFRVVSVLTVVHQDWLNGKEYKCKVSNKGLPSSIEKTISKTKGQPREPQVYTLPPSREEMTKNQVSLTCEVKGFYPSDIAVEWESNGQPENNYKTTPPMLDSDGSFFLYSKLTVDKSRWQQGNVFSCSVMHEALHNHYTQKSLSLSPGK
light 1: DIQMTQSPSSLSASVGDRVTITCRASQSTRSHLAWYQQKPGKAPKLLIYKASSLEGGVPSRFSGSGSGTDFTLTISSLQPEDFATYYCQQYGSYSRTFGQGTKVEIKRTVAAPSVFIFPPSDEQLKSGTASVVCLLNNFYPREAKVQWKVDNALQSGNSQESVTEQDSKDSTYSLSSTLTLSKADYEKHKVYACEVTHQGLSSPVTKSFNRGEC
heavy 2: EVQLVESGGGLVQPGGSLRLSCAASGFTFSDYYMTWVRQAPGKGLEWVAFIRNQARGYTSDHNPSVKGRFTISRDNAKNSLYLQMNSLRAEDTAVYYCARDRPSYYVLDYWGQGTTVTVSSASTKGPSVFPLAPCSRSTSESTAALGCLVKDYFPEPVTVSWNSGALTSGVHTFPAVLQSSGLYSLSSVVTVPSSNFGTQTYTCNVDHKPSNTKVDKTVERKCRVRCPRCPAPPVAGPSVFLFPPKPKDTLMISRTPEVTCVVVAVSHEDPEVQFNWYVDGVEVHNAKTKPREEQFNSTFRVVSVLTVVHQDWLNGKEYKCKVSNKGLPSSIEKTISKTKGQPREPQVYTLPPSREEMTKNQVSLTCLVKGFYPSDIAVEWESNGQPENNYKTTPPMLDSDGSFFLYSRLTVDKSRWQQGNVFSCSVMHEALHNHYTQKSLSLSPGK
light 2: DIQMTQSPSSLSASVGDRVTITCTSSQSLFNVRSQKNYLAWYQQKPGKAPKLLIYWASTRESGVPSRFSGSGSGTDFTLTISSLQPEDFATYYCKQSYDLFTFGGGTKVEIKRTVAAPSVFIFPPSDEQLKSGTASVVCLLNNFYPREAKVQWKVDNALQSGNSQESVTEQDSKDSTYSLSSTLTLSKADYEKHKVYACEVTHQGLSSPVTKSFNRGEC
Regarding B1, the binding entry was “binds”.
